Reference: the supplement of paper PMC4683952
Counter-ions that a name gives are not always drawn. This is one part of the list. No stated cut-off is given here; in the data, active = 2.5 or more and inactive = the rest. Most values lie within the scatter of the assay; repeated measurements hardly agree.

System: Lgr5 (MarsCy1-Lgr5-EGFP, U2OS)
Assay: cell-surface Lgr5 expression (SCi1 fluorescence, background-subtracted) relative to WT control (fold of WT control); higher = more Lgr5 at the plasma membrane
Settings: U2OS MarsCy1-Lgr5-EGFP stable; treatment time: overnight; library: Prestwick; 20 µM

cell-surface Lgr5 expression, inactive:
CC(C)(C)NC[C@@H](O)COc1cccc2c1CCCC2=O [(+) -Levobunolol hydrochloride] 2.49, N=C(N)NC(=N)NCCc1ccccc1 [Phenformin hydrochloride] 0.576, CC(=O)S[C@@H]1CC2=CC(=O)CC[C@]2(C)[C@H]2CC[C@@]3(C)[C@@H](CC[C@@]34CCC(=O)O4)[C@H]12 [Spironolactone] 0.576, CC(Cc1cccc(C(F)(F)F)c1)NCCOC(=O)c1ccccc1 (centres undefined) [Benfluorex hydrochloride] 1.41, NNCCc1ccccc1 [Phenelzine sulfate] 1.13, C=C(C)[C@@H]1CC[C@]2(C(=O)O)CC[C@]3(C)[C@H](CC[C@@H]4[C@@]5(C)CC[C@H](O)C(C)(C)[C@@H]5CC[C@]43C)[C@@H]12 [Betulinic acid] 1.53, O=C1NCCN1c1ncc([N+](=O)[O-])s1 [Niridazole] 0.621, CC(C)(C)C(=O)OCOC(=O)[C@@H]1N2C(=O)[C@@H](/N=C/N3CCCCCC3)[C@H]2SC1(C)C [Pivmecillinam hydrochloride] 1.76, OCC(O)CN1CCN(c2ccccc2)CC1 (racemic) [Dropropizine (R,S)] 0.933, CNc1ncnc2c1ncn2[C@@H]1O[C@H](CO)[C@@H](O)[C@H]1O [N6-methyladenosine] 1.62, C[C@@H](O)[C@H]1C(=O)N2C(C(=O)O)=C(SCCNC=N)C[C@H]12 [Imipenem] 2.09, c1ccc2c(c1)CCCC2C1=NCCN1 (centres undefined) [Tetrahydrozoline hydrochloride] 1.82, CS(=O)(=O)c1ccc([C@@H](O)[C@@H](CF)NC(=O)C(Cl)Cl)cc1 [Florfenicol] 1.37, C=C(CC)C(=O)c1ccc(OCC(=O)O)c(Cl)c1Cl [Ethacrynic acid] 1.07, CCCc1ncc(C[n+]2ccccc2C)c(N)n1 [Amprolium hydrochloride] 1.3, CCn1cc(C(=O)O)c(=O)c2cc(F)c(N3CCNCC3)nc21 [Enoxacin] 1.39, CC[C@H]1OC(=O)[C@H](C)[C@@H](O[C@H]2C[C@@](C)(OC)[C@@H](O)[C@H](C)O2)[C@H](C)[C@@H](O[C@@H]2O[C@H](C)C[C@H](N(C)C)[C@H]2O)[C@](C)(O)C[C@@H](C)C(=O)[C@H](C)[C@@H](O)[C@]1(C)O [Erythromycin] 1.01, OCCN1CCN(CCCN2c3ccccc3Sc3ccc(C(F)(F)F)cc32)CC1 [Fluphenazine dihydrochloride] -0.412, CC(C)(Oc1ccc(CCNC(=O)c2ccc(Cl)cc2)cc1)C(=O)O [Bezafibrate] 0.822, c1ccc(CC2=NCCN2)cc1 [Tolazoline hydrochloride] 1, O=C1c2ccccc2C(=O)C1c1ccccc1 [Phenindione] 2.06, Clc1ccc2c(c1)C(N1CCNCC1)=Nc1ccccc1O2 [Amoxapine] 0.844, O=C(O)CCc1nc(-c2ccccc2)c(-c2ccccc2)o1 [Oxaprozin] 1.11, Cc1ccc(N(CC2=NCCN2)c2cccc(O)c2)cc1 [Phentolamine hydrochloride] 0.643, CCCSc1ccc2[nH]c(NC(=O)OC)nc2c1 [Albendazole] 0.829, Cc1c(Cl)cccc1Nc1ccccc1C(=O)O [Tolfenamic acid] 1.53, CO[C@H]1/C=C/O[C@@]2(C)Oc3c(C)c(O)c4c(O)c(c(/C=N/N5CCN(C)CC5)c(O)c4c3C2=O)NC(=O)/C(C)=C\C=C\[C@H](C)[C@H](O)[C@@H](C)[C@@H](O)[C@@H](C)[C@H](OC(C)=O)[C@@H]1C [Rifampicin] 1.84, C[C@]12CCC(=O)C=C1CC[C@@H]1[C@@H]2C(=O)C[C@@]2(C)[C@H]1CC[C@]2(O)C(=O)CO [Cortisone] 1.64, COCCCC/C(=N\OCCN)c1ccc(C(F)(F)F)cc1 [Fluvoxamine maleate] 0.733, O=C(O)C1CCCNC1 (racemic) [(±)-Nipecotic acid] 2.24, CN(C)[C@@H]1C(O)=C(C(N)=O)C(=O)[C@@]2(O)C(O)=C3C(=O)c4c(O)cccc4[C@@](C)(O)[C@H]3C[C@@H]12 [Tetracycline hydrochloride] 0.874, CC(=O)Oc1cc(C(F)(F)F)ccc1C(=O)O [Triflusal] 1.49, CS(=O)(=O)c1ccc([C@@H](O)[C@@H](CO)NC(=O)C(Cl)Cl)cc1 [Thiamphenicol] 1.35, CC(C)Cc1ccc([C@H](C)C(=O)O)cc1 [S-(+)-ibuprofen] 2, CN1CCN(CCCN2c3ccccc3Sc3ccc(S(=O)(=O)N(C)C)cc32)CC1 [Thioproperazine dimesylate] 1.29, CC(=O)O[C@]1(C(C)=O)CC[C@H]2[C@@H]3C=C(C)C4=CC(=O)CC[C@@H]4[C@H]3CC[C@@]21C [Nomegestrol acetate] 1.93, NS(=O)(=O)c1cc2c(cc1Cl)N=C(CSCc1ccccc1)NS2(=O)=O [Benzthiazide] 1.97, O=C1C(CC[S+]([O-])c2ccccc2)C(=O)N(c2ccccc2)N1c1ccccc1 (centres undefined) [Sulfinpyrazone] 0.777, C#C[C@]1(OC(C)=O)CC[C@H]2[C@@H]3CCC4=C[C@@H](OC(C)=O)CC[C@@H]4[C@H]3CC[C@@]21C [Ethynodiol diacetate] 2.23, Nc1ccc(S(=O)(=O)Nc2ncccn2)cc1 [Sulfadiazine] 1.32, CO[C@@]1(NC(=O)C(C(=O)O)c2ccc(O)cc2)C(=O)N2C(C(=O)O)=C(CSc3nnnn3C)CO[C@@H]21 (some centres undefined) [Moxalactam disodium salt] 1.41, C#C[C@]1(O)CC[C@H]2[C@@H]3CCC4=CC(=O)CC[C@@H]4[C@H]3CC[C@@]21C [Norethindrone] 1.82, COC(=O)C1=C(C)NC(C)=C(C(=O)OC)C1c1ccccc1[N+](=O)[O-] [Nifedipine] 0.785, CCN(CC)CCOC(=O)C1(c2ccc([N+](=O)[O-])cc2)CCCC1 [Nitrocaramiphen hydrochloride] 1.1, Clc1ccccc1CN1CCc2sccc2C1 [Ticlopidine hydrochloride] 1.28, Cc1cc(NC(=O)C2=C(O)c3ccccc3S(=O)(=O)N2C)no1 [Isoxicam] 1.57, Cc1cc(C(C)(C)CC(C)(C)C)ccc1OCCOCC[N+](C)(C)Cc1ccccc1 [Methyl benzethonium chloride] 1.89, CN(C)CCCN1c2ccccc2CCc2ccc(Cl)cc21 [Clomipramine hydrochloride] 1.16, CO[C@@]1(NC(=O)C2SC(=C(C(N)=O)C(=O)O)S2)C(=O)N2C(C(=O)O)=C(CSc3nnnn3C)CS[C@@H]21 (some centres undefined) [Cefotetan] 1.46, CCN(CC)CCCC(C)Nc1c2ccc(Cl)cc2nc2ccc(OC)cc12 (centres undefined) [Quinacrine dihydrochloride dihydrate] 1.13, CCCCCCCCCCCCCCCC[N+](C)(C)CCN(Cc1ccc(OC)cc1)c1ncccn1 [Thonzonium bromide] 0.398, CC(C)NCC(O)c1ccc(NS(C)(=O)=O)cc1 (centres undefined) [Sotalol hydrochloride] 0.643, C#C[C@]1(O)CC[C@H]2[C@@H]3CCc4cc(OC)ccc4[C@H]3CC[C@@]21C [Ethynylestradiol 3-methyl ether] 1.9, CC(=O)N1CCN(c2ccc(OCC3COC(Cn4ccnc4)(c4ccc(Cl)cc4Cl)O3)cc2)CC1 (centres undefined) [Ketoconazole] 0.443, CCOC(=O)Nc1ccc2c(c1)N(C(=O)CCN1CCOCC1)c1ccccc1S2 [Moricizine hydrochloride] 1.3, COC(=O)[C@H]1[C@H]2C[C@@H]3c4[nH]c5cc(OC)ccc5c4CCN3C[C@H]2C[C@@H](OC(=O)c2cc(OC)c(OC)c(OC)c2)[C@@H]1OC [Reserpine] 2.17, CNC(=C[N+](=O)[O-])NCCSCc1ccc(CN(C)C)o1 [Ranitidine hydrochloride] 1

cell-surface Lgr5 expression, active:
C=C1CC[C@H](O)C/C1=C/C=C1\CCC[C@]2(C)[C@@H]([C@H](C)CCCC(C)C)CC[C@@H]12 [Cholecalciferol] 2.86, CCN(CC)CCCC(C)Nc1ccnc2cc(Cl)ccc12 (centres undefined) [Chloroquine diphosphate] 2.87, Nc1ccc(S(=O)(=O)NC(=O)c2ccccc2)cc1 [Sulfabenzamide] 2.58, CC(C(=O)O)c1cccc(Oc2ccccc2)c1 (centres undefined) [Fenoprofen calcium salt dihydrate] 3.88, C[C@]12C=CC(=O)C=C1CC[C@@H]1[C@@H]2[C@@H](O)C[C@@]2(C)[C@H]1CC[C@]2(O)C(=O)CO [Prednisolone] 4.19, O=C(O)Cc1ccccc1Nc1c(Cl)cccc1Cl [Diclofenac sodium] 3.82, COc1cc2c(cc1OC)-c1cc3ccc(OC)c(OC)c3c[n+]1CC2 [Palmatine chloride] 3.62
